Results taken from patent US20080199897A1, “CLASS II HISTONE DEACETYLASE WHOLE CELL ENZYME ASSAY” (MethylGene Inc., priority 2007, published 2008).

Tested on: A549
Assay: whole cell deacetylase assay with Boc-Lys(Ac)-AMC in A549 cells
Details: read-out: whole cell deacetylase IC50, A549, pre-incubated with inhibitor 16 hours, Boc-Lys(Ac)-AMC substrate, mean of at least 2 experiments

SMILES: O=C(CCCCCCC(=O)Nc1ccccc1)NO [SAHA]
- IC50: 500 nM
